Measurements published in the supplement of paper PMC10849652.
This is one part of the list.

Sequences of proteins named here, by UniProt entry; tags and fusion partners are left off. A change or cut given only in a name is not applied to a line headed by its entry.
UniProt O75683: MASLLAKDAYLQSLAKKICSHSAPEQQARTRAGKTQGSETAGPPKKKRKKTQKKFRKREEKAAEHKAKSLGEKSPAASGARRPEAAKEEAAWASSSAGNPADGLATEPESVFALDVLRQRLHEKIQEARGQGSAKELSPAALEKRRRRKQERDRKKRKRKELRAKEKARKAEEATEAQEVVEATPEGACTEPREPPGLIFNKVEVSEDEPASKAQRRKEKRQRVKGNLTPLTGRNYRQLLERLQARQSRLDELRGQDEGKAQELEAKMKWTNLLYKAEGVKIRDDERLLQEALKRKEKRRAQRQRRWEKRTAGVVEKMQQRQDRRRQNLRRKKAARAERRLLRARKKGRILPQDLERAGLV
UniProt Q86TM6, whole entry, looked up: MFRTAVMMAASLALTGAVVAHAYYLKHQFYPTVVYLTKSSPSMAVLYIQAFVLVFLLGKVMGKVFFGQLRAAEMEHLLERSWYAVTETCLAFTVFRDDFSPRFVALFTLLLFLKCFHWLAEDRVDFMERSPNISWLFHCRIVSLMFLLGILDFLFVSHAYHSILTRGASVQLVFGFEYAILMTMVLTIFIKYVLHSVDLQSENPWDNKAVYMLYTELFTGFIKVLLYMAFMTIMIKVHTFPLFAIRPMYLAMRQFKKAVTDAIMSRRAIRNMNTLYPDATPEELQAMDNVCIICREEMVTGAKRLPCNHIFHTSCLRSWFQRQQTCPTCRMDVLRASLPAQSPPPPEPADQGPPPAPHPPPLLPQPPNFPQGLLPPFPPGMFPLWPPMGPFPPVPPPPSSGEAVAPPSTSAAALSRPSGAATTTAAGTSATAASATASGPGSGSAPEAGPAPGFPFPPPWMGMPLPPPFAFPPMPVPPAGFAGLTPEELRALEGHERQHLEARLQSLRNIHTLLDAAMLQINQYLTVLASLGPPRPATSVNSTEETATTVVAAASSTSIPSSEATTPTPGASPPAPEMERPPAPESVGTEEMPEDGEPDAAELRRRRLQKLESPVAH
UniProt Q15208: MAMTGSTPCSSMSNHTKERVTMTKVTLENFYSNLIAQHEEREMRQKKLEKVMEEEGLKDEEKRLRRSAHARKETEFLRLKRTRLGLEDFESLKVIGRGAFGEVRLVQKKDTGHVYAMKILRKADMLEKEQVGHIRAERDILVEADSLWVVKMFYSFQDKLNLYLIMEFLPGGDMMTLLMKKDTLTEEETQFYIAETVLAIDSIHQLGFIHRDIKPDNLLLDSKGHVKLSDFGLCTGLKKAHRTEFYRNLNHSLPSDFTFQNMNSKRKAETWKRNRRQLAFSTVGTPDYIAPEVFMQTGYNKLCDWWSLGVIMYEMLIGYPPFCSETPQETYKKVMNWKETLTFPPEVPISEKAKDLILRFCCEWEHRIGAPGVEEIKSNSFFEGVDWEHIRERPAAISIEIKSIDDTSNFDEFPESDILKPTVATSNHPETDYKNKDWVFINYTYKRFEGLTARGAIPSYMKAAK
UniProt Q86Y82: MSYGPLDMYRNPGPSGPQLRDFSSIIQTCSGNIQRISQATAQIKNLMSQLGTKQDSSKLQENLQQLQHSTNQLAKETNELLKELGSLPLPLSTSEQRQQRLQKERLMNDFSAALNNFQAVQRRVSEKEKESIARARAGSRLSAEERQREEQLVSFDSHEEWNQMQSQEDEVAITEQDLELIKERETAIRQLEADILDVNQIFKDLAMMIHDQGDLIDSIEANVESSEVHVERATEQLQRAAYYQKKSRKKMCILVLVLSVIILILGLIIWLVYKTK
UniProt P61764, whole entry, looked up: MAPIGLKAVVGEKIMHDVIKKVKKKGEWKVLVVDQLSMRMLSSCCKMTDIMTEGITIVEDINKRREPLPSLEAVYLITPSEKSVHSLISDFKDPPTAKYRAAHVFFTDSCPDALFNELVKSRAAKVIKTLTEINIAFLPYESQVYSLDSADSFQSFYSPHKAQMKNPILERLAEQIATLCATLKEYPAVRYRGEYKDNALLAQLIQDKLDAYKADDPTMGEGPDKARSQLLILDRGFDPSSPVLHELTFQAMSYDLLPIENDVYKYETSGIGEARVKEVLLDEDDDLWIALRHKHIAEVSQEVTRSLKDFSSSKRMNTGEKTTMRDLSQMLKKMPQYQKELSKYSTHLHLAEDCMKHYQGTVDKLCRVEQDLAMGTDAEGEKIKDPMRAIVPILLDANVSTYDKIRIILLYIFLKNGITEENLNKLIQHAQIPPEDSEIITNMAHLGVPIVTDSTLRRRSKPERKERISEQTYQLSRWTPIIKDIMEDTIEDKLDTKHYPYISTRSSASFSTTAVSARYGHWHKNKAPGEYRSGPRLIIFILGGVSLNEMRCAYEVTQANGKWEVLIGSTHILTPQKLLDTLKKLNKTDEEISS
UniProt Q92750: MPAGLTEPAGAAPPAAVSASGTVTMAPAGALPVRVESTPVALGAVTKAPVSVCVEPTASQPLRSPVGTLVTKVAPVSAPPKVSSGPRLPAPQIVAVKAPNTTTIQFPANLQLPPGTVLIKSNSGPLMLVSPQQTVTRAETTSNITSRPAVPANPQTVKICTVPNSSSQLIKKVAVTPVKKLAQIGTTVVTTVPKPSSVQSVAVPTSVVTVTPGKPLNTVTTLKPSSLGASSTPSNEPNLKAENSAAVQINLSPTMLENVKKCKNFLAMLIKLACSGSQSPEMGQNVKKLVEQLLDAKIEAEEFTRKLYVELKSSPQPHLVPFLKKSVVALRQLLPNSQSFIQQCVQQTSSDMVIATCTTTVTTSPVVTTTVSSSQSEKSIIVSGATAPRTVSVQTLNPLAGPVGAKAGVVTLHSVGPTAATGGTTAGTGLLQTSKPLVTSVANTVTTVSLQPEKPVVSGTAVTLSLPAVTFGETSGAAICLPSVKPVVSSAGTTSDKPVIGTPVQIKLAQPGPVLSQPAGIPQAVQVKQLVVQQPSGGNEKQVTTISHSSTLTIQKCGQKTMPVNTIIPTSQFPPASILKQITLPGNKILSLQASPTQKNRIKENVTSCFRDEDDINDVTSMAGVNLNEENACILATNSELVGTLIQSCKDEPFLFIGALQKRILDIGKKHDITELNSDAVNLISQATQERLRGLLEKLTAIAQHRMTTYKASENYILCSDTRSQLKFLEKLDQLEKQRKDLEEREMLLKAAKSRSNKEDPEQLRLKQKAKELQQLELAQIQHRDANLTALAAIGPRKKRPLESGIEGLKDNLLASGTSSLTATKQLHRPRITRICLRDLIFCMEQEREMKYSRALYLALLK
UniProt Q8IYB8: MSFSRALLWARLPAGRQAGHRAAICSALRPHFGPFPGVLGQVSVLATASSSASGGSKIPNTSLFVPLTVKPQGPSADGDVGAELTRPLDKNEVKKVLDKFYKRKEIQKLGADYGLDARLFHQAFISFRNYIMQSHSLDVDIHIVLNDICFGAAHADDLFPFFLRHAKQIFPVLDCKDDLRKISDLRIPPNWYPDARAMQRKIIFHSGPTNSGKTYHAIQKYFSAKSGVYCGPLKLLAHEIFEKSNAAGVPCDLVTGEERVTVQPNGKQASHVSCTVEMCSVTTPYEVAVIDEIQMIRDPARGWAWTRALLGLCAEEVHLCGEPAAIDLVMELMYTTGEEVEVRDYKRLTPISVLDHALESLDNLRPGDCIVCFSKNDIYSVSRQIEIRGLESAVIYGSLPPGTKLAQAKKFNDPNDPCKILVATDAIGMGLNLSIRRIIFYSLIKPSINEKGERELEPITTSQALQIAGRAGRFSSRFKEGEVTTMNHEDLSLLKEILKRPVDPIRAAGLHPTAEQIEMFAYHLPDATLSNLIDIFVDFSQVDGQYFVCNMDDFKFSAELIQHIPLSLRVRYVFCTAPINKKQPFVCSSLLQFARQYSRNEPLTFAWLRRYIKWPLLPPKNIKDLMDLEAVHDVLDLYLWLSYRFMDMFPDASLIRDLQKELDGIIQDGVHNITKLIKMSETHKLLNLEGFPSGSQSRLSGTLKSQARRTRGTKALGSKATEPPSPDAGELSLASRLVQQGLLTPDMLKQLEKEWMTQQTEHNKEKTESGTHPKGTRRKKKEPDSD
UniProt O00506, whole entry, looked up: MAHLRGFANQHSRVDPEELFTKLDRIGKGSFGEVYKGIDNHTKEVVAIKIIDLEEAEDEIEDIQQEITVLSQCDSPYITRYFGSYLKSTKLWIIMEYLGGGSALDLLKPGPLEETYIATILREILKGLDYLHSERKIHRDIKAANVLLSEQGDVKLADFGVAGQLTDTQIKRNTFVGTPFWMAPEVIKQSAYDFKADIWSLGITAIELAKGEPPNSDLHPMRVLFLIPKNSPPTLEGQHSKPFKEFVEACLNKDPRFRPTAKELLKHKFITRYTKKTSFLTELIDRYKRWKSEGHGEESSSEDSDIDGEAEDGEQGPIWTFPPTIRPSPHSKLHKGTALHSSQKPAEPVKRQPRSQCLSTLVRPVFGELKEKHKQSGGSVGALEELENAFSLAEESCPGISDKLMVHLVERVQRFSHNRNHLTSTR
UniProt P50225: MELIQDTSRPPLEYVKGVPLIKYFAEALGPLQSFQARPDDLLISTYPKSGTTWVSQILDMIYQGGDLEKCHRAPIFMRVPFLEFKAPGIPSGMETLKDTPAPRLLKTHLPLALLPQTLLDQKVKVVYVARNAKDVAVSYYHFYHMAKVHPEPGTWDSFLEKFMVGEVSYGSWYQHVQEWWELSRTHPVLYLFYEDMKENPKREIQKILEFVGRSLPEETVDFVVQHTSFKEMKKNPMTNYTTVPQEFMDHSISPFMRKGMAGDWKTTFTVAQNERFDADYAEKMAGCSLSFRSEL
UniProt Q9Y5B9, whole entry, looked up: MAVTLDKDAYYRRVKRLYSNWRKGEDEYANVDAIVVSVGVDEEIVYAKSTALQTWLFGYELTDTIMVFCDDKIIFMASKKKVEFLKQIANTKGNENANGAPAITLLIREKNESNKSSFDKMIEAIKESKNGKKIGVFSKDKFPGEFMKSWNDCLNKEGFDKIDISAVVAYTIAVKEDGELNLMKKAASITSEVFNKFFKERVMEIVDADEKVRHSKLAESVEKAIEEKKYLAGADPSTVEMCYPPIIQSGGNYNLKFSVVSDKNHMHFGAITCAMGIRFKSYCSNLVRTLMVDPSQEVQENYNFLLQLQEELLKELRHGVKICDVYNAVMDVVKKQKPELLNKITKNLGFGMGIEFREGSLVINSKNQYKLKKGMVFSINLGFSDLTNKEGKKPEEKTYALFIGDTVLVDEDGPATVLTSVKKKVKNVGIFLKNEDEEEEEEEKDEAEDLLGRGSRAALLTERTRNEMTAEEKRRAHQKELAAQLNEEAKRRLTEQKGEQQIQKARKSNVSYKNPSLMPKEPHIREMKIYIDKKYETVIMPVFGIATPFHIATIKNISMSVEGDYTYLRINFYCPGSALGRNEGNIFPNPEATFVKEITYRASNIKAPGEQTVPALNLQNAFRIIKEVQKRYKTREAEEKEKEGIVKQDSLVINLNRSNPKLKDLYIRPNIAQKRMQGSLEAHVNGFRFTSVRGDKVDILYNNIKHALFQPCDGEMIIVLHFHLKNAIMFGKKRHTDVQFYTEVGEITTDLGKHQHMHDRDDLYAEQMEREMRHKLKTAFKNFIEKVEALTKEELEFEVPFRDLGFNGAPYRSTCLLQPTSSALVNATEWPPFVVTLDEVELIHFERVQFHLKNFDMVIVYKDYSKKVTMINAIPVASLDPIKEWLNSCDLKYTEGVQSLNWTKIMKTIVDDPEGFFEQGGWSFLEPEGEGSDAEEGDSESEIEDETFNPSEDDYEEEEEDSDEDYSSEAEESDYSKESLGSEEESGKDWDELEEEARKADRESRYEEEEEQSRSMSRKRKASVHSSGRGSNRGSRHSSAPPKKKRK
UniProt Q8IWZ8: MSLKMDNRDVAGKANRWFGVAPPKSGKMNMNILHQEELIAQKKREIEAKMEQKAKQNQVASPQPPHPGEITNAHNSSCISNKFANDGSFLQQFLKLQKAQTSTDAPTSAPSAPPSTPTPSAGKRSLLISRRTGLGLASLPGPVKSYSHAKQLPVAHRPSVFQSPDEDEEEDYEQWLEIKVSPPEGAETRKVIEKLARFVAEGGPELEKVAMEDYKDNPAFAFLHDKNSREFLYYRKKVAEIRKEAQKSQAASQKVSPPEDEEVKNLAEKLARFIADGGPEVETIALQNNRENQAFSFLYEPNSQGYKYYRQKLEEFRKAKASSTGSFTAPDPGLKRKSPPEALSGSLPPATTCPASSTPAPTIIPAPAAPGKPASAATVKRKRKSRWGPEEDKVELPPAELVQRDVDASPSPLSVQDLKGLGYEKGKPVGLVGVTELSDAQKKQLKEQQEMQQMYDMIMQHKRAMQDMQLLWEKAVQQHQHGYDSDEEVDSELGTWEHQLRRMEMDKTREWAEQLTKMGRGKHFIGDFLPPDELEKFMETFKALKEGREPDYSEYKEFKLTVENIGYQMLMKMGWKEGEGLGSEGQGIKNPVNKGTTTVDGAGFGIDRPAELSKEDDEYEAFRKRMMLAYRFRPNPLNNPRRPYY

Columns and labels:
Test in all cases: log2 fold change, soluble protein after heating vs DMSO (PISA); higher = thermal stabilisation; K562 lysate, 10 uM; active = over 0.2 and 3.5 SD of the protein, either way, in both replicates (recomputed)
alvocidib = compound: CN1CC[C@H](c2c(O)cc(O)c3c(=O)cc(-c4ccccc4Cl)oc23)[C@H](O)C1 [alvocidib]
Outline: (§1)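 Pellets of K562 cells were dounce-homogenised in PBS pH 7.4 with 1 mM MgCl2, and the crude extract was held at 1 mg/mL protein for a 30 min treatment with 10 μM compound. Aliquots were heated for 3 min over 48°C-58°C and pooled before NP-40 was added to 0.5% at 4°C. The supernatant from 21,000xg for 90 min was quantified by TMTpro 16plex LC-MS/MS with channel sums equalised. Values are reported from duplicates as log-two fold change in thermal stability relative to solvent controls.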

Tubastatin A = compound: CN1CCc2c(c3ccccc3n2Cc2ccc(C(=O)NO)cc2)C1 [Tubastatin A]
Outline: as §1

[1] = compound: CNC(=O)C1=CC=CC=C1NC2=NC(=NC=C2Cl)NC3=C(C=C(C=C3)N4CCOCC4)OC
Outline: as §1

defactinib = compound: CNC(=O)c1ccc(Nc2ncc(C(F)(F)F)c(NCc3nccnc3N(C)S(C)(=O)=O)n2)cc1 [defactinib]
Outline: as §1

[2] = compound: CNc1nc(-c2ccc3c(N)n[nH]c3c2)cc(N2C[C@@H](C(=O)NC3CCCCC3)CC[C@H]2C)n1
Outline: as §1

encorafenib = compound: COC(=O)N[C@@H](C)CNc1nccc(-c2cn(C(C)C)nc2-c2cc(Cl)cc(NS(C)(=O)=O)c2F)n1 [encorafenib]
Outline: as §1

[3] = compound: COC(=O)[C@H](CCSC)NC(=O)C1=C(C=C(C=C1)NC[C@H](CS)N)C2=CC=CC=C2
Outline: as §1

alisertib = compound: COc1cc(Nc2ncc3c(n2)-c2ccc(Cl)cc2C(c2c(F)cccc2OC)=NC3)ccc1C(=O)O [alisertib]
Outline: as §1

[4] = compound: COc1cc2nc(-c3cc(F)ccc3O)nc(N[C@@H]3CNC[C@H]3C(C)(C)O)c2cc1OC
Outline: as §1

gefitinib = compound: COc1cc2ncnc(Nc3ccc(F)c(Cl)c3)c2cc1OCCCN1CCOCC1 [gefitinib]
Outline: as §1

lapatinib = compound: CS(=O)(=O)CCNCc1ccc(-c2ccc3ncnc(Nc4ccc(OCc5cccc(F)c5)c(Cl)c4)c3c2)o1 [lapatinib]
Outline: as §1

pictilisib = compound: CS(=O)(=O)N1CCN(Cc2cc3nc(-c4cccc5[nH]ncc45)nc(N4CCOCC4)c3s2)CC1 [pictilisib]
Outline: as §1

crizotinib = compound: C[C@@H](Oc1cc(-c2cnn(C3CCNCC3)c2)cnc1N)c1c(Cl)ccc(F)c1Cl [crizotinib]
Outline: as §1

[5] = compound: C[C@H](C1=CC=C(C=C1)C(=O)NC2=C3C=CNC3=NC=C2)N
Outline: as §1

duvelisib = compound: C[C@H](Nc1ncnc2nc[nH]c12)c1cc2cccc(Cl)c2c(=O)n1-c1ccccc1 [duvelisib]
Outline: as §1

gandotinib = compound: Cc1cc(Nc2cc(CN3CCOCC3)c3nc(C)c(Cc4ccc(Cl)cc4F)n3n2)n[nH]1 [gandotinib]
Outline: as §1

tozasertib = compound: Cc1cc(Nc2cc(N3CCN(C)CC3)nc(Sc3ccc(NC(=O)C4CC4)cc3)n2)n[nH]1 [tozasertib]
Outline: as §1

doramapimod = compound: Cc1ccc(-n2nc(C(C)(C)C)cc2NC(=O)Nc2ccc(OCCN3CCOCC3)c3ccccc23)cc1 [doramapimod]
Outline: as §1

bafetinib = compound: Cc1ccc(NC(=O)c2ccc(CN3CC[C@H](N(C)C)C3)c(C(F)(F)F)c2)cc1Nc1nccc(-c2cncnc2)n1 [bafetinib]
Outline: as §1

[6] = compound: Cc1cccc(CC(=O)N2CCc3c2ccc(-c2cn(C)c4ncnc(N)c24)c3F)n1
Outline: as §1

Measured: log2 fold change

SURF6 (UniProt O75683)
inactive: alvocidib -0.006 | Tubastatin A 0.022 | [1] 0.009 | defactinib 0.025 | [2] 0.083 | encorafenib 0.015 | [3] -0.102 | alisertib -0.04 | [4] 0.028 | gefitinib 0.005 | lapatinib -0.021 | pictilisib 0.002 | crizotinib -0.006 | [5] 0 | duvelisib 0.029 | gandotinib 0.004 | tozasertib 0.004 | doramapimod 0.023 | bafetinib -0.03 | [6] -0.034

STX7 (UniProt O15400)
inactive: alvocidib -0.014 | Tubastatin A 0.053 | [1] 0.005 | defactinib -0.008 | [2] 0.003 | encorafenib 0.008 | [3] -0.037 | alisertib -0.032 | [4] 0.01 | gefitinib -0.009 | lapatinib -0.016 | pictilisib -0.015 | crizotinib 0.039 | [5] -0.063 | duvelisib -0.001 | gandotinib 0.044 | tozasertib -0.036 | doramapimod -0.002 | bafetinib -0.006 | [6] 0.002

SYVN1 (UniProt Q86TM6)
inactive: alvocidib -0.011 | Tubastatin A -0.012 | [1] 0.006 | defactinib -0.046 | [2] -0.002 | encorafenib 0.056 | [3] -0.084 | alisertib 0.023 | [4] -0.022 | gefitinib 0 | lapatinib -0.008 | pictilisib -0.05 | crizotinib -0.046 | [5] -0.001 | duvelisib 0.022 | gandotinib -0.016 | tozasertib 0.018 | doramapimod 0.046 | bafetinib 0.006 | [6] 0.02

SUPT5H (UniProt O00267)
inactive: alvocidib 0.014 | Tubastatin A -0.01 | [1] 0.019 | defactinib 0.005 | [2] 0.015 | encorafenib 0.003 | [3] -0.009 | alisertib 0.009 | [4] 0.002 | gefitinib 0.024 | lapatinib -0.016 | pictilisib -0.009 | crizotinib 0.017 | [5] 0.058 | duvelisib 0.003 | gandotinib -0.016 | tozasertib 0.012 | doramapimod 0.009 | bafetinib -0.023 | [6] -0.025

TAF6 isoform 3 (UniProt P49848)
inactive: alvocidib 0.076 | Tubastatin A -0.098 | [1] -0.038 | defactinib 0.128 | [2] -0.04 | encorafenib 0.023 | [3] 0.064 | alisertib -0.025 | [4] 0.019 | gefitinib -0.012 | lapatinib -0.079 | pictilisib -0.101 | crizotinib -0.074 | [5] -0.002 | duvelisib 0.081 | gandotinib 0.013 | tozasertib -0.006 | doramapimod 0.091 | bafetinib 0.007 | [6] 0.018

STK38 (UniProt Q15208)
inactive: alvocidib 0.014 | Tubastatin A -0.056 | [2] -0.037 | encorafenib -0.033 | [3] 0.056 | alisertib 0.003 | [4] 0.266 | gefitinib 0.005 | lapatinib -0.024 | pictilisib 0.061 | crizotinib 0.001 | [5] 0.017 | duvelisib 0.017 | gandotinib 0.159 | tozasertib 0.029 | doramapimod -0.001 | bafetinib -0.104 | [6] -0.071
active: [1] 0.912 | defactinib 0.502

STX12 (UniProt Q86Y82)
inactive: alvocidib -0.03 | Tubastatin A 0.052 | [1] -0.034 | defactinib -0.001 | [2] 0.024 | encorafenib 0.002 | [3] -0.002 | alisertib 0.002 | [4] 0.033 | gefitinib -0.008 | lapatinib -0.004 | pictilisib 0.012 | crizotinib 0.017 | [5] -0.027 | duvelisib -0.007 | gandotinib 0.063 | tozasertib -0.027 | doramapimod 0.017 | bafetinib 0.041 | [6] 0.021

STXBP1 (UniProt P61764)
inactive: alvocidib -0.028 | Tubastatin A 0.007 | [1] 0.006 | defactinib 0.02 | [2] 0.018 | encorafenib -0.001 | [3] 0.044 | alisertib -0.006 | [4] -0.028 | gefitinib -0.011 | lapatinib -0.009 | pictilisib 0.002 | crizotinib -0.026 | [5] -0.069 | duvelisib 0.006 | gandotinib -0.046 | tozasertib -0.038 | doramapimod 0.015 | bafetinib -0.024 | [6] 0.082

SYP (UniProt P08247)
inactive: alvocidib -0.085 | Tubastatin A -0.128 | [1] 0.114 | defactinib -0.057 | [2] 0.02 | encorafenib -0.105 | [3] -0.041 | alisertib -0.005 | [4] 0.08 | gefitinib 0.086 | lapatinib 0.006 | pictilisib 0.057 | crizotinib -0.011 | [5] 0.043 | duvelisib 0.003 | gandotinib 0.049 | tozasertib 0.072 | doramapimod -0.075 | bafetinib -0.039 | [6] -0.094

STK39 (UniProt Q9UEW8)
inactive: alvocidib 0.011 | Tubastatin A -0.128 | [1] -0.015 | defactinib 0 | [2] -0.026 | encorafenib -0.021 | [3] 0.164 | alisertib -0.055 | [4] 0.02 | gefitinib 0.028 | lapatinib 0.011 | pictilisib -0.038 | crizotinib -0.063 | [5] -0.012 | duvelisib 0.087 | gandotinib -0.044 | tozasertib 0.021 | doramapimod 0.032 | bafetinib -0.03 | [6] 0.057

Reprinted at random: 2 records from the list
STK38 (UniProt Q15208)
inactive: alvocidib 0.014 | Tubastatin A -0.056 | [2] -0.037 | encorafenib -0.033 | [3] 0.056 | alisertib 0.003 | [4] 0.266 | gefitinib 0.005 | lapatinib -0.024 | pictilisib 0.061 | crizotinib 0.001 | [5] 0.017 | duvelisib 0.017 | gandotinib 0.159 | tozasertib 0.029 | doramapimod -0.001 | bafetinib -0.104 | [6] -0.071
active: [1] 0.912 | defactinib 0.502

STXBP1 (UniProt P61764)
inactive: alvocidib -0.028 | Tubastatin A 0.007 | [1] 0.006 | defactinib 0.02 | [2] 0.018 | encorafenib -0.001 | [3] 0.044 | alisertib -0.006 | [4] -0.028 | gefitinib -0.011 | lapatinib -0.009 | pictilisib 0.002 | crizotinib -0.026 | [5] -0.069 | duvelisib 0.006 | gandotinib -0.046 | tozasertib -0.038 | doramapimod 0.015 | bafetinib -0.024 | [6] 0.082

More results follow:

TAF4B (UniProt Q92750)
inactive: alvocidib 0.051 | Tubastatin A 0.099 | [1] -0.103 | defactinib -0.063 | [2] -0.006 | encorafenib -0.096 | [3] -0.233 | alisertib -0.032 | [4] -0.146 | gefitinib -0.006 | lapatinib -0.165 | pictilisib -0.108 | crizotinib 0.008 | [5] 0.057 | duvelisib 0.03 | gandotinib -0.124 | tozasertib -0.333 | doramapimod -0.018 | bafetinib -0.104 | [6] -0.082

SUPV3L1 (UniProt Q8IYB8)
inactive: alvocidib -0.031 | Tubastatin A 0.033 | [1] 0.015 | defactinib 0.035 | [2] 0.017 | encorafenib 0.01 | [3] -0.061 | alisertib 0.018 | [4] 0.009 | gefitinib 0.013 | lapatinib -0.025 | pictilisib -0.031 | crizotinib -0.015 | [5] -0.027 | duvelisib -0.004 | gandotinib -0.034 | tozasertib -0.02 | doramapimod 0.018 | bafetinib 0.002 | [6] 0.022

STK25 (UniProt O00506)
inactive: alvocidib -0.016 | Tubastatin A -0.093 | [1] 0.023 | defactinib 0.147 | [2] -0.023 | encorafenib 0.025 | [3] -0.04 | alisertib -0.007 | [4] 0.036 | gefitinib -0.065 | lapatinib -0.058 | pictilisib -0.041 | crizotinib 0.008 | [5] -0.036 | duvelisib -0.055 | gandotinib 0.18 | tozasertib 0.033 | doramapimod -0.081 | bafetinib 0.001 | [6] 0.005

SULT1A1 (UniProt P50225)
inactive: alvocidib 0.031 | Tubastatin A -0.043 | [1] 0.018 | defactinib -0.11 | [2] 0.06 | encorafenib 0.026 | [3] 0.017 | alisertib 0.036 | [4] -0.005 | gefitinib -0.011 | lapatinib 0.023 | pictilisib -0.052 | crizotinib -0.074 | [5] -0.014 | duvelisib -0.009 | gandotinib -0.023 | tozasertib -0.002 | doramapimod -0.037 | bafetinib -0.025 | [6] 0.046

SUPT16H (UniProt Q9Y5B9)
inactive: alvocidib 0.006 | Tubastatin A -0.034 | [1] 0.011 | defactinib 0.022 | [2] -0.041 | encorafenib 0.008 | [3] 0.035 | alisertib -0.024 | [4] 0 | gefitinib -0.021 | lapatinib 0.01 | pictilisib -0.013 | crizotinib -0.009 | [5] 0.024 | duvelisib 0.022 | gandotinib -0.061 | tozasertib 0.006 | doramapimod 0.03 | bafetinib 0.006 | [6] -0.011

SUGP1 (UniProt Q8IWZ8)
inactive: alvocidib -0.019 | Tubastatin A -0.007 | [1] -0.013 | defactinib 0.039 | [2] -0.008 | encorafenib 0.009 | [3] -0.002 | alisertib -0.043 | [4] 0.02 | gefitinib 0.005 | lapatinib 0.015 | pictilisib -0.002 | crizotinib 0.036 | [5] 0.001 | duvelisib -0.009 | gandotinib 0.072 | tozasertib -0.005 | doramapimod -0.035 | bafetinib 0.01 | [6] -0.005
